According to the supplement of paper PMC10849652:
The list shows a part of the results.

Sequences of proteins named here, by UniProt entry; tags and fusion partners are left off. A change or cut given only in a name is not applied to a line headed by its entry.
UniProt Q06330: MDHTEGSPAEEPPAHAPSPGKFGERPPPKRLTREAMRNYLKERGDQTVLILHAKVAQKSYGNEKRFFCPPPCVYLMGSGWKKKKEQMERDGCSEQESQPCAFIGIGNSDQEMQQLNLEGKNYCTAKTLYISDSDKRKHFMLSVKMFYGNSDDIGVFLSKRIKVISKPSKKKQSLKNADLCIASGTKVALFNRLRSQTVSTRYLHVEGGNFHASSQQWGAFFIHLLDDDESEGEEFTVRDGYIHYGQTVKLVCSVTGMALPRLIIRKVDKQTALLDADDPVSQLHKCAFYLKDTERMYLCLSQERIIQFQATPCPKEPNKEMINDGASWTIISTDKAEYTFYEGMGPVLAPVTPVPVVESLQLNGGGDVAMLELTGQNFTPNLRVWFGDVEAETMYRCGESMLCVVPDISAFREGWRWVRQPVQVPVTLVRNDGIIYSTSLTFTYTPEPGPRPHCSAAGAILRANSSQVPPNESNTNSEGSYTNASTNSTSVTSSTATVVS
UniProt Q02094: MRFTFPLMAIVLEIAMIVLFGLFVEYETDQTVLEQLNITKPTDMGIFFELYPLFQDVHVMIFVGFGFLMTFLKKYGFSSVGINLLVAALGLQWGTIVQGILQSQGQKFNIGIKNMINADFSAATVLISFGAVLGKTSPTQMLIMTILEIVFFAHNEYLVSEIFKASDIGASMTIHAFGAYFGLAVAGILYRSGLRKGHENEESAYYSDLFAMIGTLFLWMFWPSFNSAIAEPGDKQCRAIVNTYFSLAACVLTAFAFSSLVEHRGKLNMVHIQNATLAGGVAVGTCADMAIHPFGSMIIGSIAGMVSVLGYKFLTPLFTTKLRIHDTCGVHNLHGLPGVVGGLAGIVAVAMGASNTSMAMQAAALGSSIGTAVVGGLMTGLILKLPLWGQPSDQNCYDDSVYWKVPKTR
UniProt P98179: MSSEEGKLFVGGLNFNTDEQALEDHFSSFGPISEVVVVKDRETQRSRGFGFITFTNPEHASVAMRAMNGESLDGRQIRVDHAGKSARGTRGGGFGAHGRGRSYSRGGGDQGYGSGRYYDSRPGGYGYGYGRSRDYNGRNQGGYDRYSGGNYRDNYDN
UniProt O43665: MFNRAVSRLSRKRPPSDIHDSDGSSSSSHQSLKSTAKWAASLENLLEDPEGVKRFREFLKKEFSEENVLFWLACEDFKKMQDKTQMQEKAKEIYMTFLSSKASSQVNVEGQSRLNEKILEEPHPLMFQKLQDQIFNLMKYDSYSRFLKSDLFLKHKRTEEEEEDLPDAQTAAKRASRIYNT
UniProt Q16576, whole entry, looked up: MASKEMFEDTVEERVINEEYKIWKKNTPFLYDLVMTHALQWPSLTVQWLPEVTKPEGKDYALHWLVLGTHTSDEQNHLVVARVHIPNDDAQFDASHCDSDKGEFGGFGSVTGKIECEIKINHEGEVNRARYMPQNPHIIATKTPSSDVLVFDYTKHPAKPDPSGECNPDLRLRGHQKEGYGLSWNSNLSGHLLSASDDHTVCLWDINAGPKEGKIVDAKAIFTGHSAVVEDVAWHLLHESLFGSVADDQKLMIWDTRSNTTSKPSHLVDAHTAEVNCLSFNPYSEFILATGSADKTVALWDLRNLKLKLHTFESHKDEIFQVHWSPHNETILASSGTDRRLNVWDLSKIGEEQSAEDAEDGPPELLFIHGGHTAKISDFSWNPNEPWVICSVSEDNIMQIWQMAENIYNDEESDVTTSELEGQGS
UniProt P35241, whole entry, looked up: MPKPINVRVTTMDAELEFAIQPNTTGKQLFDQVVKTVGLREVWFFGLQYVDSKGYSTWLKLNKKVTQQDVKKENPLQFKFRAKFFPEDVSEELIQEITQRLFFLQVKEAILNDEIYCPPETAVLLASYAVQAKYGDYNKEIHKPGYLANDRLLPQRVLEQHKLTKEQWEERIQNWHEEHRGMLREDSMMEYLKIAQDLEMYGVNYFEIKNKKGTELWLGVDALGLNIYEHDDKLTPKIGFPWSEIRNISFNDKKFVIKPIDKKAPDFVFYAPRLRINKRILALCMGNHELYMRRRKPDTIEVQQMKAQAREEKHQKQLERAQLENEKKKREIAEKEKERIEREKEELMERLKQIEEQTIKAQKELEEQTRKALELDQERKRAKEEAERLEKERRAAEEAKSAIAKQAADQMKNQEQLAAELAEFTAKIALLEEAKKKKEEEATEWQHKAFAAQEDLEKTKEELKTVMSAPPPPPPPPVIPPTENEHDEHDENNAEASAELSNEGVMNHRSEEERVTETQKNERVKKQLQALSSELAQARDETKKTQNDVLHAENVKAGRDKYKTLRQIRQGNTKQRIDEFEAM
UniProt Q96PK6: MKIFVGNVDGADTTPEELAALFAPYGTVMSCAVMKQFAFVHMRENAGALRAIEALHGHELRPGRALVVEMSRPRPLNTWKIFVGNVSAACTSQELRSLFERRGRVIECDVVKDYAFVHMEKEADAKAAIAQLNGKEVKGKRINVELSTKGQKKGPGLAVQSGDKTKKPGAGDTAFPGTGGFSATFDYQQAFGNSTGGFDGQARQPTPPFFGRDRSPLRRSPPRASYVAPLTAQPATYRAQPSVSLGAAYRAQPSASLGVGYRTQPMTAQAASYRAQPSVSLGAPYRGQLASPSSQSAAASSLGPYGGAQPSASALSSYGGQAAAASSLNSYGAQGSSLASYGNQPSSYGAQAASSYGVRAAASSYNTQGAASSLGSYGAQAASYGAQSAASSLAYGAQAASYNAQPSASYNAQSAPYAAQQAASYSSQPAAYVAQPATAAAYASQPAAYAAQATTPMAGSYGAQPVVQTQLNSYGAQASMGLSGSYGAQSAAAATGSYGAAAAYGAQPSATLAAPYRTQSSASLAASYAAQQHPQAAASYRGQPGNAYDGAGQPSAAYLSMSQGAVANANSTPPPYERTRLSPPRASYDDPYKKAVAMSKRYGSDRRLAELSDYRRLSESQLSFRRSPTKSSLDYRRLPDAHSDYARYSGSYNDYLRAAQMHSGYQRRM
UniProt Q8WZ73: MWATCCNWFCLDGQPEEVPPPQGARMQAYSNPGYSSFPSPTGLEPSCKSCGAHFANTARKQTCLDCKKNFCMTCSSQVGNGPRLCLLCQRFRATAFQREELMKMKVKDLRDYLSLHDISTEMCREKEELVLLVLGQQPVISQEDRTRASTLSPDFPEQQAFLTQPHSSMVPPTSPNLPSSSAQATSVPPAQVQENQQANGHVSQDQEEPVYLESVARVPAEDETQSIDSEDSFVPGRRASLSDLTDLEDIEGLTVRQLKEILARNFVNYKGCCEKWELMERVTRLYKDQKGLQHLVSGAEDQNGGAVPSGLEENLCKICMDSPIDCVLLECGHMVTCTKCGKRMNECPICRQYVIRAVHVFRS

Assays:
Assay in all cases: log2 fold change, soluble protein after heating vs DMSO (PISA); higher = thermal stabilisation; K562 lysate, 10 uM; active = over 0.2 and 3.5 SD of the protein, either way, in both replicates (recomputed)
vemurafenib = compound: CCCS(=O)(=O)Nc1ccc(F)c(C(=O)c2c[nH]c3ncc(-c4ccc(Cl)cc4)cc23)c1F [vemurafenib]
Outline: (§1)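 K562 pellets were dounce-homogenised in PBS pH 7.4 with 1 mM MgCl2, and the crude extract at 1 mg/mL protein was treated with 10 μM compound for 30 min. Aliquots were heated for 3 min across 48°C-58°C, pooled, and brought to 0.5% NP-40 at 4°C; soluble protein was the supernatant after 21,000xg for 90 min. Soluble protein was quantified by TMTpro 16plex LC-MS/MS with channel sums equalised, and reported as log2 fold change in thermal stability against DMSO controls, with values from duplicates.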

[1] = compound: CCCS(=O)(=O)Nc1ccc(F)c(C(=O)c2c[nH]c3ncc(Cl)cc23)c1F
Outline: as §1

barasertib = compound: CCN(CCCOc1ccc2c(Nc3cc(CC(=O)Nc4cccc(F)c4)[nH]n3)ncnc2c1)CCOP(=O)(O)O [barasertib]
Outline: as §1

[2] = compound: CC[C@@H]1C(=O)N(C)c2cnc(Nc3ccc(C(=O)NC4CCN(C)CC4)cc3OC)nc2N1C1CCCC1
Outline: as §1

volasertib = compound: CC[C@@H]1C(=O)N(C)c2cnc(Nc3ccc(C(=O)N[C@H]4CC[C@H](N5CCN(CC6CC6)CC5)CC4)cc3OC)nc2N1C(C)C [volasertib]
Outline: as §1

[3] = compound: CCn1c(C(=O)N(C2CC2)C2CC2)cc2c3c(ncn3C)c(Nc3cc(C)n(C)n3)nc21
Outline: as §1

[4] = compound: CCn1cc(-c2ccnc3[nH]c(-c4cccc(CN(C)C)c4)cc23)c(-c2ccc(NC(=O)N(C)C)cc2)n1
Outline: as §1

[5] = compound: CN1CCC(CNc2ccc3ncc(-c4cccc(OC(F)(F)F)c4)n3n2)CC1
Outline: as §1

saracatinib = compound: CN1CCN(CCOc2cc(OC3CCOCC3)c3c(Nc4c(Cl)ccc5c4OCO5)ncnc3c2)CC1 [saracatinib]
Outline: as §1

sotrastaurin = compound: CN1CCN(c2nc(C3=C(c4c[nH]c5ccccc45)C(=O)NC3=O)c3ccccc3n2)CC1 [sotrastaurin]
Outline: as §1

Measured: log2 fold change

RBPJ (UniProt Q06330)
inactive: vemurafenib -0.03 | [1] -0.007 | barasertib 0.008 | [2] 0.046 | volasertib 0.004 | [3] 0 | [4] -0.011 | [5] 0.017 | saracatinib -0.025 | sotrastaurin 0.009

RHAG (UniProt Q02094)
active: [4] -0.413
inactive: vemurafenib -0.032 | [1] -0.116 | barasertib 0.054 | [2] -0.16 | volasertib 0.053 | [3] -0.003 | [5] 0.121 | saracatinib 0.053 | sotrastaurin 0.029

RBM3 (UniProt P98179)
inactive: vemurafenib -0.032 | [1] -0.011 | barasertib -0.105 | [2] -0.078 | volasertib -0.007 | [3] 0.076 | [4] 0.059 | [5] -0.01 | saracatinib -0.008 | sotrastaurin 0.071

RGS10 (UniProt O43665)
inactive: vemurafenib 0.019 | [1] 0.017 | barasertib -0.006 | [2] 0.037 | volasertib 0.014 | [3] -0.018 | [4] 0.032 | [5] -0.021 | saracatinib 0.008 | sotrastaurin 0.019

RBBP7 isoform 2 (UniProt Q16576)
inactive: vemurafenib -0.064 | [1] -0.007 | barasertib -0.042 | [2] -0.057 | volasertib 0.022 | [3] 0.047 | [5] 0.088 | saracatinib 0.001 | sotrastaurin 0.032
active: [4] -0.274

RDX (UniProt P35241)
inactive: vemurafenib 0 | [1] -0.008 | barasertib 0.003 | [2] 0.016 | volasertib 0.017 | [3] -0.018 | [5] -0.109 | saracatinib -0.018 | sotrastaurin -0.013
active: [4] 0.712

RBM14 (UniProt Q96PK6)
inactive: vemurafenib -0.049 | [1] 0.062 | barasertib -0.016 | [2] -0.042 | volasertib -0.026 | [3] 0.086 | [4] 0.064 | [5] 0.039 | saracatinib -0.002 | sotrastaurin -0.071

RFFL (UniProt Q8WZ73)
inactive: vemurafenib 0.107 | [1] 0.044 | barasertib -0.126 | [2] 0.119 | volasertib -0.14 | [3] -0.092 | [4] -0.053 | [5] 0.062 | saracatinib 0.097 | sotrastaurin -0.068
